The source of these data is article PMC7080818.

Sequences of proteins named here, by UniProt entry; tags and fusion partners are left off. Residues count along the entry.
UniProt P03186, residues 1-235: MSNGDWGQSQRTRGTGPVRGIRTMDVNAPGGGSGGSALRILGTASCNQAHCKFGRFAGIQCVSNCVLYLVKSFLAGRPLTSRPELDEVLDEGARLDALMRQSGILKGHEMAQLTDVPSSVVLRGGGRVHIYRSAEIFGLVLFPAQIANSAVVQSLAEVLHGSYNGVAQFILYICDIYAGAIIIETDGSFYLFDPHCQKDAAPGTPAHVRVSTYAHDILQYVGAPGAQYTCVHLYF
UniProt P10220, residues 1-293: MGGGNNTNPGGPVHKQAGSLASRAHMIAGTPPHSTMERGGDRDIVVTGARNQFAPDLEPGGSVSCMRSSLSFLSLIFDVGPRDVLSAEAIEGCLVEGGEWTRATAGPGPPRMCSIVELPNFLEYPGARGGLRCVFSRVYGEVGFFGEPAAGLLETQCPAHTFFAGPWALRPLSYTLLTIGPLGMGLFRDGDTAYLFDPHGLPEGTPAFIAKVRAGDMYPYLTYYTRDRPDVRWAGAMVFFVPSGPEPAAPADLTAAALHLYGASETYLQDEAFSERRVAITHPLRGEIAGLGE
UniProt Q14258: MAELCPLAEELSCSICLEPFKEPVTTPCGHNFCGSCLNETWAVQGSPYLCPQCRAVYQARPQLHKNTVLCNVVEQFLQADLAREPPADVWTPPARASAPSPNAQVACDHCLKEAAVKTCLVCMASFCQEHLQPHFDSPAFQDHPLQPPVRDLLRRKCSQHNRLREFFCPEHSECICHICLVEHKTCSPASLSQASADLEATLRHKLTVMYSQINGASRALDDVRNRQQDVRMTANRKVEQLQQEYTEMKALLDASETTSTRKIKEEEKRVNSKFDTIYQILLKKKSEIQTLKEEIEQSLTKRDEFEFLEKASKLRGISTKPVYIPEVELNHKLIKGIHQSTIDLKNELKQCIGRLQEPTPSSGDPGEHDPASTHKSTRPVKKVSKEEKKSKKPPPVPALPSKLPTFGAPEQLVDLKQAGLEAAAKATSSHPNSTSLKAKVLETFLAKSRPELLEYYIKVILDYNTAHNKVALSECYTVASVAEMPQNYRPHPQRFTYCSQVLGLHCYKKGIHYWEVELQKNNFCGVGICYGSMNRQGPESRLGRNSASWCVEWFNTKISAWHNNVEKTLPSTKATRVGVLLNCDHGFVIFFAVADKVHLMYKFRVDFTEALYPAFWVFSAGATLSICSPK

No constants are given. Whether binding was seen depends on the method and setting. In cells and extracts the contact can be indirect. Some results given as binding are weak or reduced against the parent protein; the word gives no strength.

The target in assay [1] is 3xFLAG-BPLF1 (amino acid residues 1-235), N-terminal catalytic domain of the EBV large tegument protein (Epstein-Barr virus (EBV)) (UniProt P03186). Nature of the assay: co-IP; HeLa cells transfected with the FLAG-tagged viral enzymes; NP-40 lysates (50 mM Tris-HCl pH 7.6, 150 mM NaCl, 1% Igepal) incubated 4 h with anti-FLAG agarose, eluted with 3x-FLAG peptide; blots probed for endogenous pan 14-3-3 and TRIM25.

The target in assay [2] is 3xFLAG-tagged HSV-UL36 (amino acid residues 1-293), N-terminal catalytic domain of the HSV-1 large tegument protein (herpes simplex virus-1 (HSV-1)) (UniProt P10220). The description is as above.

Regarding “TRIM25 ubiquitin ligase (endogenous) (from UniProt Q14258 1-630)”, the binding result in assay [1] and in assay [2] was “binds” throughout.
